The other results are listed elsewhere or left out.

The chains behind the UniProt entries cited, without tags or fusion partners.
UniProt Q0JBA9, entry or part of it: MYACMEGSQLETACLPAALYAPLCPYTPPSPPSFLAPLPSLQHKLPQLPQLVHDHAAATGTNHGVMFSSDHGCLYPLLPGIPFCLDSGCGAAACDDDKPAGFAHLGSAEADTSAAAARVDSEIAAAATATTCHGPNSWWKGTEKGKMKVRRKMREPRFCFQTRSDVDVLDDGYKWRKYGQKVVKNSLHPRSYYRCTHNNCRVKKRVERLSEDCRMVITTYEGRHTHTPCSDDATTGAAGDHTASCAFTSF

The source of these data is article PMC7819943, “Rice protein-binding microarrays: a tool to detect cis-acting elements near promoter regions in rice”.

The experiment addresses OsWRKY34 (Oryza sativa, UniProt Q0JBA9 1-250). Description: protein-binding microarray (RPBM); PBS, 2% BSA, 51.3 ng/ul salmon testes DNA, 50 uM zinc acetate, 200 nM TF, 25 C, 1 h; high values mean tight binding. Particulars: protein: recombinant; tags: N-terminal polyhistidine and DsRed monomer fusion (pET32a); label: CyDye5-dUTP incorporated in the synthesized complementary strand; 3' TTTTT single-stranded linker to array surface; dsDNA, one strand shown. Put shortly:
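The binding signal for each feature is its fluorescence intensity in arbitrary units. An Axon 4000B scanner was used to read a custom Agilent array that had been made double-stranded with Cy5-dUTP primer extension, blocked with 2% BSA, incubated at 25 °C for 1 h with 200 nM protein in PBS, 2% BSA, salmon testes DNA and 50 µM zinc acetate, and washed. The protein was an N-terminal polyhistidine–DsRed transcription factor fusion from E. coli BL21-CodonPlus, purified on Ni–NTA.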
With “TGCCCTAGTCGCGGCGTTCTGCTGCCCTCGCCGCCGTCCCCGGAGTCACCTAGTGCAG”, the binding signal is 8690 fluorescence intensity (a.u.).
“TGTGCCGCTCCGTCGTGCTCTTCGTCGCGCCACTCATCCTCGGAGTCACCTAGTGCAG”: the binding signal is 9080 fluorescence intensity (a.u.).
For the sequence “GACCGTGCCGTCGTAATCACACTGCCCTGCTGACTAATCTCGGAGTCACCTAGTGCAG”, the binding signal was 9260 fluorescence intensity (a.u.).
In the case of “GATCTCTCCATCTTTTGGCCACCAACTCCACACACTCCAACGGAGTCACCTAGTGCAG”, the binding signal was 9260 fluorescence intensity (a.u.).
For “ACCCTGCCACGTCATATCAAACGGCACATATCTCACAATCCGGAGTCACCTAGTGCAG”, the binding signal was 8260 fluorescence intensity (a.u.).
As for “GCTCCGAATGTTATGCTTTCTTTTTTTTAGAACCGAGTCACGGAGTCACCTAGTGCAG”, the binding signal was 8580 fluorescence intensity (a.u.).
Regarding “ACTTACATGTGGGCCCATAACCTTTTTACTTTTTATTTTGCGGAGTCACCTAGTGCAG”, the binding signal was 9360 fluorescence intensity (a.u.).
With “TCTCTCTTTTTTCCCCTGATGTAAAGTTAGTGCATGATGACGGAGTCACCTAGTGCAG” the figure was 8220 fluorescence intensity (a.u.); with “TGCATTGCCTATCTCTATATATCCATCCACCCATCTCATCCGGAGTCACCTAGTGCAG”, 8060 fluorescence intensity (a.u.); with “GCTCAACTTTGATCGTATGTCTTATTTGAAATTTTTTTATCGGAGTCACCTAGTGCAG”, 9700 fluorescence intensity (a.u.).
Then “TATTCTTGTCTATCATACTCTAGTTATTTACTCAAACTGTCGGAGTCACCTAGTGCAG”, with 8300 fluorescence intensity (a.u.); and “TTTTTCTCGTTTGCCGTGTCACCGCGTGAGTTGCGCGGGGCGGAGTCACCTAGTGCAG”, with 11700 fluorescence intensity (a.u.).
For “CCCTCCGCCACCCAAACCCCACCTGCCCGTCTCCATCGCCCGGAGTCACCTAGTGCAG”, the binding signal is 9990 fluorescence intensity (a.u.).
“GTGCAGGACTGTTTTACATACTCCACATACTTTGCCATTACGGAGTCACCTAGTGCAG”: the binding signal was 10000 fluorescence intensity (a.u.).
On to “AATTTGCACAGTCGATTGTTTAGCCTGACACGAGTCTTCACGGAGTCACCTAGTGCAG”, for which the binding signal is 9640 fluorescence intensity (a.u.).
Then “ACACTTGGCATTAATCTAATTTAACTTTTTTTTCTTTATCCGGAGTCACCTAGTGCAG”, with 8440 fluorescence intensity (a.u.).
On to “GCCTGCGCCTGCGCCGCCGGCGACCTCCATCCCGTCCCCGCGGAGTCACCTAGTGCAG”, for which the binding signal was 10300 fluorescence intensity (a.u.).
Consider “ACCACACACGGCGCACACACACGCGTACGCTACCACCAAACGGAGTCACCTAGTGCAG”, for which the binding signal is 8420 fluorescence intensity (a.u.).
As for “CCTCGGTGTGCTTTGGGTGTTCGTCCGTGTTCTTGCCTTTCGGAGTCACCTAGTGCAG”, the binding signal was 8060 fluorescence intensity (a.u.).
With “GATAAGTGGCACGTGGGGATAGGGGAAATTCTCGCGAAAACGGAGTCACCTAGTGCAG”, the binding signal is 8200 fluorescence intensity (a.u.).
For the sequence “TTTTTTTCCCTTGTACCATTAGAACATGGCCATGCCACATCGGAGTCACCTAGTGCAG”, the binding signal was 8030 fluorescence intensity (a.u.).
With “TGATGTTCTTTTATTTTGTTTTTCTTTGCCAAATCTTAAACGGAGTCACCTAGTGCAG” the figure was 8370 fluorescence intensity (a.u.); with “TTTTTTCAGCATGTCTTGTTAAATTTTATCTCGTAGAGGTCGGAGTCACCTAGTGCAG”, 8660 fluorescence intensity (a.u.); with “AATATATACGCCACGTGAACCACACCTTCTGTACGAAATTCGGAGTCACCTAGTGCAG”, 9770 fluorescence intensity (a.u.).
Then “GGCGGCGGGGTGGGACGACGAAGAGCAGCAGCTCCTTGGACGGAGTCACCTAGTGCAG”, with 9350 fluorescence intensity (a.u.); and “TTGGGGTTGGCGGGAATTAGGGTTTCGTTGGTGGGGTTTTCGGAGTCACCTAGTGCAG”, with 25900 fluorescence intensity (a.u.); and “ATACCCCTACCAACGTATCCATTTTGATAATTCATACTCTCGGAGTCACCTAGTGCAG”, with 9450 fluorescence intensity (a.u.).
Then “CTTTGTTTCATGTGCACATCAGTAGCCATTGCTAAATATGCGGAGTCACCTAGTGCAG”, with 10200 fluorescence intensity (a.u.); and “CCTTTTCCTACCTCGCCTCGCCGCCCGCACCGAGCAAACTCGGAGTCACCTAGTGCAG”, with 9550 fluorescence intensity (a.u.); and “GAGTCGTCGCGGTCACTCGTCCGTATCTGCCTCGGTGGGGCGGAGTCACCTAGTGCAG”, with 11600 fluorescence intensity (a.u.).
Turning to “TCCTTTATTTTATTTTGTCTAAGCAAATCTCAGCCATCCGCGGAGTCACCTAGTGCAG”, the binding signal was 8370 fluorescence intensity (a.u.).
Take “AATCAAGACACACTTTACGCTGGGCTTGGGCTGTTTTTACCGGAGTCACCTAGTGCAG”: the binding signal is 9100 fluorescence intensity (a.u.).
With “CTACCTAGGGTTTCTCGCCGCCTCGCATCCCCTCCTCCTCCGGAGTCACCTAGTGCAG” the figure was 8790 fluorescence intensity (a.u.); with “TTCGGCCCCACTCATATCAAGATGCGCCACTGGTTGACCTCGGAGTCACCTAGTGCAG”, 8040 fluorescence intensity (a.u.).
Then “CCCGGCCACGTTTTCCTCACGCTCGCGCGCGCGCGCAACCCGGAGTCACCTAGTGCAG”, with 8760 fluorescence intensity (a.u.).
As to “CAATGTAAGTCATTCTAGCATTTCCCACATTCGTATTGATCGGAGTCACCTAGTGCAG”, the binding signal is 8730 fluorescence intensity (a.u.).
Regarding “GTGCGAGCTGCGCCCGTGTGATGTGGGCGGGTGGGTGTTCCGGAGTCACCTAGTGCAG”, the binding signal is 16900 fluorescence intensity (a.u.).
With “TATATCTGCCTCTACCATCCATGCATGCAAGTTTCATCAACGGAGTCACCTAGTGCAG” the figure was 8030 fluorescence intensity (a.u.); with “TGGCAAGCTGGCAATCTGGCAGGCCCGGTCAAAGTTTGACCGGAGTCACCTAGTGCAG”, 14200 fluorescence intensity (a.u.); with “AACACCACATCTCTCCATCTGATCGATCACCCGATCGCATCGGAGTCACCTAGTGCAG”, 8830 fluorescence intensity (a.u.).
Then “GGACCACATGTATGTTGGCTTCTCTTCATCGTCGTCAGCGCGGAGTCACCTAGTGCAG”, with 8780 fluorescence intensity (a.u.); and “CCCTCGCGCTCTTCCATGTCCTGCCCATCTCCTGCCGCACCGGAGTCACCTAGTGCAG”, with 11300 fluorescence intensity (a.u.).
